Test results: patent publication US20240042018A1
No constants are given. Whether binding was seen depends on the method and setting. Some binding calls cover weakened binding; strength is not graded here.

Assays:
I53_dn5A pentamer [1] = experiment: nanoparticle assembly grade, Table 3
I53_dn5A pentamer [2] = experiment: in vitro nanoparticle assembly, SEC

B1: I53_dn5B_2gly trimer (designed binder)
chain: EEAELAYLLGELAYKLGEYRIAIRAYRIALKYDNLTAEAWYNLGNAYYKQGRYREAIEYYQKALELDPNNAEAWYNLGNAYYERGEYENATEYYRKALRLDPNNADAMQNLLNAKMREELEEQKLISEEDLHHHHHH
modifications: N-linked glycans at PNGS 32-YDNLT-36 and 89-NAT-91
- binding (I53_dn5A pentamer [1]): binds
- binding (I53_dn5A pentamer [2]): binds
